Record: PubChem BioAssay AID652243 (Drosophila RNAi Screening Center, 2013)

Test: 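Fly regulators of androgen-dependent reporter output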 (primary screen)
Cells: Drosophila S2R+ cells
Reagents: long dsRNA against Drosophila genes
Duration: 72 h (48 h, then 24 h hormone)
Treatment: synthetic androgen R1881 at 10 nM for 24 h
Read-out: 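Firefly light from an androgen-responsive reporter and Renilla control light per well, raw and unnormalised, for each of two replicates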
Direction: firefly reporter light: higher = more light from androgen-responsive reporter; Renilla control light: higher = more constitutive control signal (cell number, transfection)
Hit rule: 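Hit when the log firefly-to-Renilla ratio dropped or increased by a fixed fold versus the mean of GFP or LacZ controls across duplicate plates; lowering cut given as 1.5 and as 3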
Meaning of the calls: active = hit: reporter lowered or raised; inactive = no hit
The screen tested about 24,000 reagents; this is a random part of those with a known target gene and a result. Of all reagents, 246 (1%) got an active call. 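Plates not normalised; calls are printed but the firefly/Renilla ratio behind them is not deposited; fold cut for lowering reported inconsistently.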 The raw values are shown without normalisation. No sequences are given here. Not stated in the record: the amount of reagent.

| gene | DRSC id | firefly reporter light, replicate 1 | firefly reporter light, replicate 2 | Renilla control light, replicate 1 | Renilla control light, replicate 2 | Call |
| --- | --- | --- | --- | --- | --- | --- |
| REPTOR (GeneID 42930) | DRSC14626 | 7997 | 24257 | 2.27e5 | 2.32e5 | inactive |
| REPTOR (GeneID 42930) | DRSC24359 | 2.62e5 | 2.63e5 | 3.79e5 | 3.65e5 | inactive |
| snRNA:U3 (retired record) (GeneID 3772609) | DRSC37894 | 7.21e5 | 8.29e5 | 1.41e6 | 1.48e6 | inactive |
| CG17028 (GeneID 39741) | DRSC10239 | 1.79e5 | 1.34e5 | 1.39e6 | 1.16e6 | inactive |
| CG17028 (GeneID 39741) | DRSC29850 | 5.45e5 | 4.67e5 | 1.06e6 | 1.37e6 | inactive |
| CG30383 (GeneID 246583) | DRSC05062 | 1.55e5 | 1.85e5 | 4.40e5 | 3.66e5 | inactive |
| CG15432 (GeneID 33647) | DRSC00447 | 49103 | 36767 | 6.43e5 | 4.04e5 | inactive |
| CG15432 (GeneID 33647) | DRSC23618 | 7.11e5 | 5.96e5 | 7.19e5 | 5.45e5 | inactive |
| clos (GeneID 5740204) | DRSC06240 | 2.58e5 | 2.96e5 | 1.49e6 | 2.06e6 | inactive |
| clos (GeneID 5740204) | DRSC06241 | 2.96e5 | 1.93e5 | 2.09e6 | 1.45e6 | inactive |
| clos (GeneID 5740204) | DRSC06778 | 3.37e5 | 2.64e5 | 1.93e6 | 1.62e6 | inactive |
| clos (GeneID 5740204) | DRSC21857 | 6.54e5 | 6.31e5 | 1.20e6 | 1.29e6 | inactive |
| clos (GeneID 5740204) | DRSC22942 | 3.99e5 | 7.53e5 | 9.85e5 | 1.81e6 | inactive |
| sls (GeneID 44013) | DRSC08528 | 1.63e6 | 1.22e6 | 2.08e6 | 1.87e6 | inactive |
| sls (GeneID 44013) | DRSC08540 | 83114 | 97078 | 8.94e5 | 9.51e5 | inactive |
| sls (GeneID 44013) | DRSC08670 | 47822 | 56462 | 9.67e5 | 1.12e6 | inactive |
| sls (GeneID 44013) | DRSC36617 | – | – | – | – | inactive |
| sls (GeneID 44013) | DRSC36618 | – | – | – | – | inactive |
| CG10576 (GeneID 38645) | DRSC09745 | 9.94e5 | 8.23e5 | 1.31e6 | 1.78e6 | inactive |
| AnxB10 (GeneID 33019) | DRSC20677 | 94856 | 55607 | 8.27e5 | 8.27e5 | inactive |
| AnxB10 (GeneID 33019) | DRSC25182 | 4.40e5 | 5.73e5 | 8.72e5 | 8.80e5 | inactive |
| CG3548 (GeneID 37932) | DRSC04387 | 7.29e5 | 7.72e5 | 1.65e6 | 1.79e6 | inactive |
| CG3548 (GeneID 37932) | DRSC29938 | 5.73e5 | 4.45e5 | 1.20e6 | 1.34e6 | inactive |
| CG31347 (GeneID 318693) | DRSC21582 | 5.80e5 | 6.29e5 | 1.75e6 | 1.94e6 | inactive |
